Assay results published in the supplement of paper PMC7125110.
± gives the standard error. The uncertainty is large for many entries.

B1: glmS ribozyme (parent)
chain: AUAAAAGCGCCAGAACUACAGAAAUGUAGUUGACGAGGAGGAGGUUUAUCGAAUUUUCGGCGGAUGCCUCCAAA

Variants of: B1
Assay: self-cleavage kobs at 640 uM GlcN6P; higher = faster cleavage; RNA array
Settings: with glucosamine-6-phosphate
Outline: (§1)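 Tiles of sequenced MiSeq chips were imaged over ~14 h at 37 °C. On them, barcoded ribozyme variants had been transcribed in situ by E. coli RNA polymerase and were tracked via a hybridised Cy3 probe while glucosamine-6-phosphate (40 μM to 10 mM) in HEPES/KCl/Mg(OAc)2 buffer flowed in. Per-tile medians, normalised to baseline and to non-cleaving reference variants, were fit to one- or two-exponential decays for kobs, and weighted Michaelis–Menten fits gave kcat and KM.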

Variant	self-cleavage kobs at 640 uM GlcN6P
AUAAAAGCGCCAGAACUACAGAAAUGUAGUUGACGUGGAGGAGGUUUAUCGAAUUUUCGGCGGAUGCCACCAAA [A36U U69A]	7.85e-05 ± 3.9e-05 s⁻¹
AUAAAAGCGCCAGAACUACAGAAAUGUAGUUGACGAGGAGGAGGUUUAUAGAAUUUUCGGCGGAUGACUCCAAA [C50A C67A]	2.12e-05 ± 1.8e-05 s⁻¹
AUAAAAGCGCCAGAACUACAGAAAUGUAGUUGACGACGAGGAGGUUUAUCGAAUUUUCGGCGCAUGCUUCCAAA [G37C G63C C68U]	4.71e-05 ± 4.5e-05 s⁻¹
AUAAAAGCGCCAGAACUACAGAAAUGUAGUUGACGAGGAGGAGGUUUAUCGAAUUUUCAGCGGAUGCCCCCAAA [G59A U69C]	2.2e-05 ± 1.3e-05 s⁻¹
AUAAAAGCGCCAGAACUACAGAAAUGUAGUUGACGAGGUGGAGGUUUAUCGUAUUUUCGGCGGAUGCCUCCAAA [A39U A52U]	1.24e-05 ± 9.6e-06 s⁻¹
AUAAAAGCGCCAGAACUACAGAAAUGUAGUUGACGAGGAGGAGGUUUGUCGAAUAUUCGGCGGAUGCCUACAAA [A48G U55A C70A]	3.62e-05 ± 2.8e-05 s⁻¹
AUAAAAGCGCCAGAACUACAGAAAUGUAGUUGACGUGUUGGAGGUUUAUCGAAUUUUCGGCGGAUGCCUCCAAA [A36U G38U A39U]	2.06e-05 ± 2e-05 s⁻¹
AUAAAAGCGCCAGAACUACAGAAAUGUAGUUGACGAGGAGGAGGUUUAUAGAUUUUUCGGCGGAUGUCUCCAAA [C50A A53U C67U]	3.82e-05 ± 2.9e-05 s⁻¹
AUAAAAGCGCCAGAACUACAGAAAUGUAGUUGACGAGGAGGAGGUUUAUCGAACUUUCAGCGGAUGCCUCCAAA [U54C G59A]	2.73e-05 ± 1.9e-05 s⁻¹
AUAAAAGCGCCAGAACUACAGAAAUGUAGUUGACGAAGAGGAGGUUUAUCGGAUUUUCGGCGGAUGCCUCCAAA [G37A A52G]	2.58e-05 ± 1.5e-05 s⁻¹
AUAAAAGCGCCAGAACUACAGAAAUGUAGUUGACGAGGAGGAGGUUUAUAGAGUUUUCGGCGGAUGCCUCCAAA [C50A A53G]	2.44e-05 ± 1.7e-05 s⁻¹
AUAAAAGCGCCAGAACUACAGAAAUGUAGUUGACGAGGAGGAGGUUUAUGGAAUUUUGGGCCGAUGCCUCCAAA [C50G C58G G62C]	3.58e-05 ± 2e-05 s⁻¹
AUAAAAGCGCCAGAACUACAGAAAUGUAGUUGACGAGGCGGAGGUUUCUCGAAUUUUCGGCGGAUGCCUCCAAA [A39C A48C]	1.34e-05 ± 1.1e-05 s⁻¹
AUAAAAGCGCCAGAACUACAGAAAUGUAGUUGACGAGGAGGAGGUUUAUCGAAGUUUCGGCGGAUGGCUAUAAA [U54G C67G C70A C71U]	3.73e-05 ± 2.2e-05 s⁻¹
AUAAAAGCGCCAGAACUACAGAAAUGUAGUUGACGAGGCGGAGGUUUAUCGAAUUCUCGGCGGAGGCCUCCAAA [A39C U56C U65G]	1.95e-05 ± 1.7e-05 s⁻¹
AUAAAAGCGCCAGAACUACAGAAAUGUAGUUGACGAGGAGGAGGUUUAUAGAAUUUUCGGCGGAUGCCUAAAAA [C50A C70A C71A]	3.55e-05 ± 2.8e-05 s⁻¹
AUAAAAGCGCCAGAACUACAGAAAUGUAGUUGACGAGGAGGAGGUUUAUCGAAUUUGCGGCGGAUGCCUCGAAA [U57G C71G]	2.27e-05 ± 1.6e-05 s⁻¹
AUAAAAGCGCCAGAACUACAGAAAUGUAGUUGACGAGGAGGAGGUUUAUCGCAUGUUGGGCGGAUGCAUCCAAA [A52C U55G C58G C68A]	4.31e-05 ± 2.3e-05 s⁻¹
AUAAAAGCGCCAGAACUACAGAAAUGUAGUUGACGAGGAGGAGGUUUAACGAAGUUUCGGCGGAUGCCUGCAAA [U49A U54G C70G]	5.57e-05 ± 3.5e-05 s⁻¹
AUAAAAGCGCCAGAACUACAGAAAUGUAGUUGACGAGGAGGAGGUUUAACGAAUUUUCGGCGGAUGCCUGCAAA [U49A C70G]	1.77e-05 ± 1.6e-05 s⁻¹
AUAAAAGCGCCAGAACUACAGAAAUGUAGUUGACGAGGAGGGGGUUUAUCGGAUUUUCGGCGGAGGCCUCCAAA [A42G A52G U65G]	2.58e-05 ± 1.8e-05 s⁻¹
AUAAAAGCGCCAGAACUACAGAAAUGUAGUUGACGAGGAGGAGGUUUAUCGGAUUUUCGGCGGACGCCUCCAAA [A52G U65C]	2.56e-05 ± 2.5e-05 s⁻¹
AUAAAAGCGCCAGAACUACAGAAAUGUAGUUGACGAGGAGGAGGUUUAUCGUAUUUUCGGCGGAUGGCUGCAAA [A52U C67G C70G]	2.51e-05 ± 1.8e-05 s⁻¹
AUAAAAGCGCCAGAACUACAGAAAUGUAGUUGACGAGGACGAGGUUUAUCGAAUUGUCGGCGGAUGCCUUCAAA [G40C U56G C70U]	2.58e-05 ± 2.4e-05 s⁻¹
AUAAAAGCGCCAGAACUACAGAAAUGUAGUUGACGAGGAGGAGGCUUAUCGAAUUUUCGGCGGACGCCUCCAAA [U45C U65C]	2.3e-05 ± 1.2e-05 s⁻¹
AUAAAAGCGCCAGAACUACAGAAAUGUAGUUGACGAGGACGAGGUUUAACCAAUUUUCGGCGGAUGCCUACAAA [G40C U49A G51C C70A]	4.21e-05 ± 2.8e-05 s⁻¹
AUAAAAGCGCCAGAACUACAGAAAUGUAGUUGACGAGGAGGAGGUUUACCGAAUUUUCGGCGGAUGCGUCCAAA [U49C C68G]	0.000547 ± 0.00048 s⁻¹
AUAAAAGCGCCAGAACUACAGAAAUGUAGUUGACGAGGAGGAGGUUUAUCGAAUUUUUGGCGGAUGCCUUCAAA [C58U C70U]	< 1e-05 s⁻¹
AUAAAAGCGCCAGAACUACAGAAAUGUAGUUGACGAGGUGUAGGUAUAUCGAAUUUUCGGCGGAUGCCUCCAAA [A39U G41U U46A]	1.92e-05 ± 1e-05 s⁻¹

Given as a markdown table: entries from further up

| Variant | self-cleavage kobs at 640 uM GlcN6P |
| --- | --- |
| AUAAAAGCGCCAGAACUACAGAAAUGUAGUUGACGAGGAGGAGGUUUAUCGUAUUUUCGGCGGAUGGCUGCAAA [A52U C67G C70G] | 2.51e-05 ± 1.8e-05 s⁻¹ |
| AUAAAAGCGCCAGAACUACAGAAAUGUAGUUGACGAGGACGAGGUUUAUCGAAUUGUCGGCGGAUGCCUUCAAA [G40C U56G C70U] | 2.58e-05 ± 2.4e-05 s⁻¹ |
| AUAAAAGCGCCAGAACUACAGAAAUGUAGUUGACGAGGAGGAGGCUUAUCGAAUUUUCGGCGGACGCCUCCAAA [U45C U65C] | 2.3e-05 ± 1.2e-05 s⁻¹ |

Variants of: B1
Assay: self-cleavage kobs at 10000 uM GlcN6P; higher = faster cleavage; RNA array
Settings: with glucosamine-6-phosphate
Outline: as §1

Variant	self-cleavage kobs at 10000 uM GlcN6P
AUAAAAGCGCCAGAACUACAGAAAUGUAGUUGACGUGGAGGAGGUUUAUCGAAUUUUCGGCGGAUGCCACCAAA [A36U U69A]	2.48e-05 ± 2e-05 s⁻¹
AUAAAAGCGCCAGAACUACAGAAAUGUAGUUGACGAGGAGGAGGUUUAUCGGAUUUUCGGCGGACGCCUCCAAA [A52G U65C]	3.21e-05 ± 1.6e-05 s⁻¹

Variants of: B1
Assay: self-cleavage kobs at 2500 uM GlcN6P; higher = faster cleavage; RNA array
Settings: with glucosamine-6-phosphate
Outline: as §1

Variant	self-cleavage kobs at 2500 uM GlcN6P
AUAAAAGCGCCAGAACUACAGAAAUGUAGUUGACGAGGAGGAGGUUUAUAGAAUUUUCGGCGGAUGACUCCAAA [C50A C67A]	2.9e-05 ± 1.5e-05 s⁻¹
AUAAAAGCGCCAGAACUACAGAAAUGUAGUUGACGAGGAGGAGGUUUAUCGAAUUUUCAGCGGAUGCCCCCAAA [G59A U69C]	2.91e-05 ± 2.5e-05 s⁻¹
AUAAAAGCGCCAGAACUACAGAAAUGUAGUUGACGAGGAGGAGGUUUAUCGAACUUUCAGCGGAUGCCUCCAAA [U54C G59A]	2.02e-05 ± 1.6e-05 s⁻¹
AUAAAAGCGCCAGAACUACAGAAAUGUAGUUGACGAGGAGGAGGUUUAUCGAAGUUUCGGCGGAUGGCUAUAAA [U54G C67G C70A C71U]	4.14e-05 ± 3e-05 s⁻¹
AUAAAAGCGCCAGAACUACAGAAAUGUAGUUGACGAGGAGGAGGUUUAUAGAAUUUUCGGCGGAUGCCUAAAAA [C50A C70A C71A]	3.08e-05 ± 1.7e-05 s⁻¹

Variants of: B1
Assay: self-cleavage kobs at 160 uM GlcN6P; higher = faster cleavage; RNA array
Settings: with glucosamine-6-phosphate
Outline: as §1

Variant	self-cleavage kobs at 160 uM GlcN6P
AUAAAAGCGCCAGAACUACAGAAAUGUAGUUGACGUGUUGGAGGUUUAUCGAAUUUUCGGCGGAUGCCUCCAAA [A36U G38U A39U]	2.33e-05 ± 2.1e-05 s⁻¹
